PubChem BioAssay AID1224826 | NIAID – 2016
Aim: 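Knock-downs that raise or lower Tnf reporter signal after endotoxin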 (primary screen). Cells: RAW264.7 G9 macrophages from mouse bearing reporters for p65 (GFP) and the Tnf promoter (mCherry). Reagents: siRNA pool against mouse genes, 100 nM. Duration: 16 h of LPS stimulation, after 2 days of siRNA transfection. Treatment: bacterial lipopolysaccharide (Salmonella minnesota R595), 10 ng/ml. Measurement: 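Imaged Tnf reporter mCherry in nuclei, minus background, normalised per plate to the median and expressed as robust z-scores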. Direction: Tnf reporter robust z-score: higher = stronger Tnf promoter reporter signal after LPS; Tnf reporter intensity: higher = stronger Tnf promoter reporter signal. Call rule: 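Called active when robust z-score is at most -1.3, matching the median of the Tlr4 knock-down control, or over 3; control wells and wells with under 50 cells never active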. Meaning of the calls: active = Tnf reporter clearly lowered or raised; inactive = no clear change in Tnf reporter.
Shown is an unselected part of about 17,000 reagents tested. Of all reagents, about 1,110 (6.6%) got an active call. 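Active means lowered or raised reporter signal; replicate intensities are raw and not normalised per plate.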 Reagents against one gene are numbered here. Reagent sequences are not shown.

target gene | reagent | Tnf reporter robust z-score | fewer than 50 cells in well | Tnf reporter intensity, replicate 1 | Tnf reporter intensity, replicate 2 | outcome
Cfap206 (cilia and flagella associated protein 206) | 1 | -1.77 | enough cells in well | 130 | 31.6 | active
Pskh1 (protein serine kinase H1) | 1 | -0.23 | enough cells in well | 184 | 92.5 | inactive
Tjp3 (tight junction protein 3) | 1 | -1.22 | enough cells in well | 65 | 58.3 | inactive
Atl1 (atlastin GTPase 1) | 1 | 1.21 | enough cells in well | 379 | 315 | inactive
Tmem175 (transmembrane protein 175) | 1 | – | fewer than 50 cells per well; well left out of calls | 142 | 58 | inactive
Gpr137b (G protein-coupled receptor 137B) | 1 | -0.08 | enough cells in well | 296 | 32.1 | inactive
Hoxd1 (homeobox D1) | 1 | -0.94 | enough cells in well | 176 | 107 | inactive
Cc2d1a (coiled-coil and C2 domain containing 1A) | 1 | -0.04 | enough cells in well | 182 | 229 | inactive
Tsc22d1 (TSC22 domain family, member 1) | 1 | -0.06 | enough cells in well | 202 | 148 | inactive
Gorab (golgin, RAB6-interacting) | 1 | 1.48 | enough cells in well | 319 | 271 | inactive
Eml4 (echinoderm microtubule associated protein like 4) | 1 | – | fewer than 50 cells per well; well left out of calls | 132 | 101 | inactive
Rnf138rt1 (ring finger protein 138, retrogene 1) | 1 | 2.28 | enough cells in well | 372 | 150 | inactive
B4galnt1 (beta-1,4-N-acetyl-galactosaminyl transferase 1) | 1 | -0.69 | enough cells in well | 187 | 189 | inactive
Npepl1 (aminopeptidase-like 1) | 1 | -1.3 | enough cells in well | 127 | 66.9 | active
Zfp354c (zinc finger protein 354C) | 1 | 3.07 | enough cells in well | 273 | 231 | active
Lrrc4 (leucine rich repeat containing 4) | 1 | -1.17 | enough cells in well | 140 | 67.6 | inactive
Nt5e (5' nucleotidase, ecto) | 1 | -0.13 | enough cells in well | 252 | 157 | inactive
Il17rb (interleukin 17 receptor B) | 1 | -0.86 | enough cells in well | 213 | 75.8 | inactive
Sft2d1 (SFT2 domain containing 1) | 1 | 0.36 | enough cells in well | 169 | 168 | inactive
1810009A15Rik (RIKEN cDNA 1810009A15 gene) | 1 | -1.48 | enough cells in well | 114 | 38.8 | active
Glyr1 (glyoxylate reductase 1 homolog (Arabidopsis)) | 1 | – | fewer than 50 cells per well; well left out of calls | 75 | 66.4 | inactive
Mtcp1 (mature T cell proliferation 1) | 1 | -0.41 | enough cells in well | 170 | 224 | inactive
Ly6d (lymphocyte antigen 6 family member D) | 1 | 1.98 | enough cells in well | 319 | 242 | inactive
Crisp1 (cysteine-rich secretory protein 1) | 1 | -1.42 | enough cells in well | 86.6 | 102 | active
Cep83 (centrosomal protein 83) | 1 | – | fewer than 50 cells per well; well left out of calls | 175 | 74.9 | inactive
Nampt (nicotinamide phosphoribosyltransferase) | 1 | 0.38 | enough cells in well | 258 | 215 | inactive
Lcn6 (lipocalin 6) | 1 | -0.74 | enough cells in well | 154 | 122 | inactive
Thoc5 (THO complex 5) | 1 | -0.94 | enough cells in well | 195 | 75.9 | inactive
Drc4 (dynein regulatory complex subunit 4) | 1 | 0.53 | enough cells in well | 310 | 271 | inactive
Actr3b (ARP3 actin-related protein 3B) | 1 | -0.29 | enough cells in well | 167 | 136 | inactive
Epb41l5 (erythrocyte membrane protein band 4.1 like 5) | 1 | 0.3 | enough cells in well | 300 | 132 | inactive
Gamt (guanidinoacetate methyltransferase) | 1 | -0.38 | enough cells in well | 236 | 195 | inactive
Dmrtc1a (DMRT-like family C1a) | 1 | -0.95 | enough cells in well | 115 | 47.1 | inactive
Otulinl (OTU deubiquitinase with linear linkage specificity like) | 1 | 0.56 | enough cells in well | 50.4 | 195 | inactive
Copz1 (coatomer protein complex, subunit zeta 1) | 1 | – | fewer than 50 cells per well; well left out of calls | 46.6 | 190 | inactive
Or5p69 (olfactory receptor family 5 subfamily P member 69) | 1 | -1.57 | enough cells in well | 43.3 | 52.4 | active
Ctla4 (cytotoxic T-lymphocyte-associated protein 4) | 1 | 1.35 | enough cells in well | 295 | 343 | inactive
Dsg1b (desmoglein 1 beta) | 1 | -1.08 | enough cells in well | 166 | 112 | inactive
Ppox (protoporphyrinogen oxidase) | 1 | 0.45 | enough cells in well | 303 | 205 | inactive
Trav13-5 (T cell receptor alpha variable 13-5) | 1 | -1.14 | enough cells in well | 101 | 106 | inactive
Entpd7 (ectonucleoside triphosphate diphosphohydrolase 7) | 1 | 1.29 | enough cells in well | 378 | 181 | inactive
Reps2 (RALBP1 associated Eps domain containing protein 2) | 1 | -0.94 | enough cells in well | 222 | 133 | inactive
Or2y1g (olfactory receptor family 2 subfamily Y member 1G) | 1 | -1.48 | enough cells in well | 90.6 | 60.1 | active
Smr2 (submaxillary gland androgen regulated protein 2) | 1 | -0.53 | enough cells in well | 89.4 | 50.9 | inactive
Taf15 (TATA-box binding protein associated factor 15) | 1 | -0.21 | enough cells in well | 232 | 115 | inactive
Bcs1l | 1 | -0.97 | enough cells in well | 86.1 | 124 | inactive
Ndor1 (NADPH dependent diflavin oxidoreductase 1) | 1 | -0.61 | enough cells in well | 194 | 76.7 | inactive
Zfp78 (zinc finger protein 78) | 1 | – | fewer than 50 cells per well; well left out of calls | 65.3 | 151 | inactive
Pex16 (peroxisomal biogenesis factor 16) | 1 | 0.31 | enough cells in well | 256 | 208 | inactive
Ifi27l2a (interferon, alpha-inducible protein 27 like 2A) | 1 | -0.44 | enough cells in well | 112 | 159 | inactive
Cnga3 (cyclic nucleotide gated channel alpha 3) | 1 | -0.24 | enough cells in well | 213 | 204 | inactive
Cldn14 (claudin 14) | 1 | 1.74 | enough cells in well | 362 | 357 | inactive
Nxph4 (neurexophilin 4) | 1 | – | fewer than 50 cells per well; well left out of calls | 86.1 | 87.6 | inactive
Zfp82 (zinc finger protein 82) | 1 | -0.25 | enough cells in well | 143 | 80.7 | inactive
Spcs2 (signal peptidase complex subunit 2 homolog (S. cerevisiae)) | 1 | 0.23 | enough cells in well | 185 | 163 | inactive
Cbln2 (cerebellin 2 precursor protein) | 1 | -0.62 | enough cells in well | 93.4 | 190 | inactive
Sgcd (sarcoglycan, delta (dystrophin-associated glycoprotein)) | 1 | -0.6 | enough cells in well | 229 | 167 | inactive
Far1 (fatty acyl CoA reductase 1) | 1 | – | fewer than 50 cells per well; well left out of calls | 159 | 52.1 | inactive
Fabp9 (fatty acid binding protein 9, testis) | 1 | 0.46 | enough cells in well | 208 | 210 | inactive
Qpctl (glutaminyl-peptide cyclotransferase-like) | 1 | 1.27 | enough cells in well | 298 | 123 | inactive
Rab26 (RAB26, member RAS oncogene family) | 1 | -0.55 | enough cells in well | 230 | 181 | inactive
Rdh10 (retinol dehydrogenase 10 (all-trans)) | 1 | 0.61 | enough cells in well | 158 | 151 | inactive
Abca1 (ATP-binding cassette, sub-family A member 1) | 1 | 2.04 | enough cells in well | 274 | 257 | inactive
Ddx3x (DEAD box helicase 3, X-linked) | 1 | 2.56 | enough cells in well | 415 | 249 | inactive
Ddx3x (DEAD box helicase 3, X-linked) | 2 | 0.13 | enough cells in well | 191 | 187 | inactive
A130023I24Rik (RIKEN cDNA A130023I24 gene) | 1 | -0.52 | enough cells in well | 135 | 134 | inactive
Zbtb25 (zinc finger and BTB domain containing 25) | 1 | -0.31 | enough cells in well | 190 | 225 | inactive
Zfp282 (zinc finger protein 282) | 1 | 2.62 | enough cells in well | 0 | 245 | inactive
Pou2af1 (POU domain, class 2, associating factor 1) | 1 | -0.93 | enough cells in well | 160 | 139 | inactive
Cpne8 (copine VIII) | 1 | 2.22 | enough cells in well | 296 | 336 | inactive
C1qtnf3 (C1q and tumor necrosis factor related protein 3) | 1 | – | fewer than 50 cells per well; well left out of calls | 112 | 155 | inactive
Fam181b (family with sequence similarity 181, member B) | 1 | -0.15 | enough cells in well | 172 | 134 | inactive
Ager (advanced glycosylation end product-specific receptor) | 1 | -0.31 | enough cells in well | 124 | 182 | inactive
Sik2 (salt inducible kinase 2) | 1 | 0.21 | enough cells in well | 247 | 138 | inactive
Cdkn2a (cyclin dependent kinase inhibitor 2A) | 1 | 2.1 | enough cells in well | 283 | 298 | inactive

Not a retest: entries from further up.
target gene | reagent | Tnf reporter robust z-score | fewer than 50 cells in well | Tnf reporter intensity, replicate 1 | Tnf reporter intensity, replicate 2 | outcome
Thoc5 (THO complex 5) | 1 | -0.94 | enough cells in well | 195 | 75.9 | inactive
Drc4 (dynein regulatory complex subunit 4) | 1 | 0.53 | enough cells in well | 310 | 271 | inactive
Actr3b (ARP3 actin-related protein 3B) | 1 | -0.29 | enough cells in well | 167 | 136 | inactive
Epb41l5 (erythrocyte membrane protein band 4.1 like 5) | 1 | 0.3 | enough cells in well | 300 | 132 | inactive
Gamt (guanidinoacetate methyltransferase) | 1 | -0.38 | enough cells in well | 236 | 195 | inactive
Dmrtc1a (DMRT-like family C1a) | 1 | -0.95 | enough cells in well | 115 | 47.1 | inactive
Otulinl (OTU deubiquitinase with linear linkage specificity like) | 1 | 0.56 | enough cells in well | 50.4 | 195 | inactive
Copz1 (coatomer protein complex, subunit zeta 1) | 1 | – | fewer than 50 cells per well; well left out of calls | 46.6 | 190 | inactive
